{
  "source": "patent US4950647A",
  "about": "“T cell immunopotentiator” (Nucleic Acid Research Institute, priority 1988, dated 1990)",
  "origin": "cited, not measured here",
  "key": {"[1]": {"system": "human lymphocytes (peripheral blood mononuclear cells)", "conditions": "known; cited from earlier work"}, "B cells": {"system": "B cells", "conditions": "predominantly a subset of mature B lymphocytes; cited from earlier work"}},
  "note": "For at least one compound, name, drawing or mass did not settle the structure.",
  "data": [
    {"smiles": "Cn1c(=O)n([C@@H]2O[C@H](CO)[C@@H](O)[C@H]2O)c2nc(N)[nH]c(=O)c21", "note": "[7-methyl-8-oxoguanosine]", "values": [
      {"measurement": "activation of lymphocytes to proliferate", "setting": "[1]", "value": "activate lymphocytes to proliferate"},
      {"measurement": "stimulation of B cell proliferation", "setting": "B cells", "value": "stimulate proliferation of B cells"}
    ]}
  ]
}
